Assay results published in PMC4551942.

Chains of the proteins cited; added tags and fusions are not shown. Lines headed by an entry give the natural chain unless they say otherwise; changes in a name come on top.
UniProt Q8NCV1: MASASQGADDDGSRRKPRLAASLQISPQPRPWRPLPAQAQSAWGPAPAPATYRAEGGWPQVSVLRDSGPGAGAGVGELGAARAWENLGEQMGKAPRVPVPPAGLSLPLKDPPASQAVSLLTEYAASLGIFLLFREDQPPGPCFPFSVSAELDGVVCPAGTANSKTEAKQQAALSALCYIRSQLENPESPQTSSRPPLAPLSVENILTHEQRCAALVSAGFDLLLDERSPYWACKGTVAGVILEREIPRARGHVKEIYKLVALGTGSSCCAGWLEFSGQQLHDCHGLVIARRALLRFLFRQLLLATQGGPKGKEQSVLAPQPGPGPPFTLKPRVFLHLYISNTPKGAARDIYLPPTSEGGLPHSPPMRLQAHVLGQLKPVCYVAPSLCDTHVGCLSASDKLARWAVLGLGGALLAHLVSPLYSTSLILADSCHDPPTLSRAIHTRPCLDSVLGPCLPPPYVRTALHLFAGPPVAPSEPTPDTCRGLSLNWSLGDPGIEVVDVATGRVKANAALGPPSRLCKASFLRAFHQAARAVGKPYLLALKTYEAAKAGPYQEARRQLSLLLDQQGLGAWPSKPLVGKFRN

Assays:
Assay in all cases: SiMPull
Conditions in all cases: negligible binding; SiMPull/smPIFE on PEG surface, 1 nM labeled RNA, unbound RNA washed out; binding buffer; protein in a lysate after overexpression; protein details: EYFP at C-terminus; label: 3' amine-Cy3
[1] = target: T1, Staufen1 (Stau1)-EYFP (human) (UniProt O95793)
T1 sequence (looked up, limits assumed): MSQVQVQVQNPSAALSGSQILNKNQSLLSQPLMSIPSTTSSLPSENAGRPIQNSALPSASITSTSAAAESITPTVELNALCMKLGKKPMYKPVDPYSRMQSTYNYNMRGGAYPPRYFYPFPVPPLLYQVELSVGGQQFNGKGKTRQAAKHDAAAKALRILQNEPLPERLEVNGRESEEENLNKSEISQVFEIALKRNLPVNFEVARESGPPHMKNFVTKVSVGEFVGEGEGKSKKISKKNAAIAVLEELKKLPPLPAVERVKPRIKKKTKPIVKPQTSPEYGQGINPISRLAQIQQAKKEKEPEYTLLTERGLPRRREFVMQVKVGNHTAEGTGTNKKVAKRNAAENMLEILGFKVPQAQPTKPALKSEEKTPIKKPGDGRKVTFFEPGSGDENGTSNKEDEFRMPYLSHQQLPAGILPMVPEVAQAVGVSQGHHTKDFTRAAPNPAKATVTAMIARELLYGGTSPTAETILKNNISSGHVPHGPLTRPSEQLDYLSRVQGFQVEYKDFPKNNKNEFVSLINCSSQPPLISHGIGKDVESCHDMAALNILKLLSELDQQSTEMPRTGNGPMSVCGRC

[2] = target: T2, TRBP (TRBP2)-EYFP (human) (UniProt Q15633)
T2 sequence: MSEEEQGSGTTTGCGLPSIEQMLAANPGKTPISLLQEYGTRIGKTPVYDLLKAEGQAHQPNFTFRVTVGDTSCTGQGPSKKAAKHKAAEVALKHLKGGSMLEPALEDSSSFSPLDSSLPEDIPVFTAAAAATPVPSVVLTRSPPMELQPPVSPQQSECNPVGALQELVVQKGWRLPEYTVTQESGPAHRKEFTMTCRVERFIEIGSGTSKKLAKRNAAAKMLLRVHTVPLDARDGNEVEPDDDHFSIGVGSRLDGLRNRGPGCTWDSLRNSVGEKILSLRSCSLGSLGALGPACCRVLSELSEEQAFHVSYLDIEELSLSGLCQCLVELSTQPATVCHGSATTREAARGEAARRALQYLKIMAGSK

[3] = target: ADAD2-EYFP (human) (UniProt Q8NCV1)

Measured: binding result

UUUUUUUUUUUUUUUUUUUUUUUUUUUUUUUUUUUUUUUU [U40]
no binding: all assays above

For at least one entry, the source does not settle the construct or the ends of the probe. At least one result comes from cells or an extract, where the contact may be indirect. Negatives hold for the conditions tested. At least one verdict was read from the data and is not stated in words by the source. For part of these data: Protein sequences can lack the tags named with them.
